At least one compound was matched to its structure with a doubt left.
How the values were obtained:
HBV = experiment: Cell culture experiments with N-nonyl-DNJ, total HBV DNA and immune precipitated DNA; type: cell-based, Hepatitis B virus
[1] = system: woodchuck hepatitis virus (WHV); experiment: Woodchuck model, N-nonyl-DNJ monotherapy, total HBV DNA and immune precipitated HBV DNA (IPDNA); type: in vivo; details: p<0.005
Procedure: Therefore, five groups of four animals each (all groups had both sexes, all but the control had two of each sex) were assigned to 0, 12.5, 25, 50, and 100 mg/kg/day with BID oral dosing. These were lab-reared wild animals. All animals were infected with woodchuck hepatitis virus (WHV) as neonates, and had been tested positive on serological tests for WHV surface antigen. Blood samples were drawn one week prior to dosing (−1 week), immediately before dosing (0 weeks), weekly during dosing (1, 2, 3, and 4 weeks), and after the end of dosing (5, 6, 8, and 10 weeks).
There are two measures of drug efficacy: reduction in total HBV DNA (measured by quantitative PCR), and reduction in HBV DNA from capsids with intact surface glycoproteins, which is the active form of the virus (measured by an ELISA-like immune precipitation assay followed by quantitative PCR).
Before models are fitted to the data, a log transform was applied because: 1) the variation in IPDNA increases with increasing IPDNA values; the log transformation gives values with a nearly constant variation, and 2) it is expected that drug effects will appear as a constant multiplier of the IPDNA level. Because there are zero values of IPDNA, a small value (about ½ of the smallest non-zero value) was added to all values before the log transform. […]

## CCCCCCCCCN1C[C@H](O)[C@@H](O)[C@H](O)[C@H]1CO [Compound 1, N-(n-nonyl)-1,5-dideoxy-1,5-imino-D-glucitol]
HBV
  effect on immune precipitated DNA (IPDNA): marked effect
  effect on total HBV DNA: little or no effect
[1]
  change with dose in slope of IPDNA over weeks 0-4 (increasing for low dose, decreasing for high dose animals): statistically significant

From patent US20050119310A1, “Use of n-substituted-1,5-dideoxy-1,5-imino-d-glucitol compounds for treating hepatitis virus infections” (priority 2000, published 2005)
